Assay results as given in PMC5290147.
No constants are given. Whether binding was seen depends on the method and setting. In cells and extracts the contact can be indirect. Some results given as binding are weak or reduced against the parent protein; the word gives no strength.

Target: β1 wild-type cytoplasmic tail peptide
Experiment: pull-down; desthiobiotinylated peptides immobilised on Dynabeads MyOne Streptavidin C1; 1 mg pKO-αV/β1 fibroblast lysate, overnight at 4 °C; western blot; only the target purified

binding: binds
B1: kindlin-2 (protein, UniProt Q8CIB5 1-680)
chain: MALDGIRMPDGCYADGTWELSVHVTDLNRDVTLRVTGEVHIGGVMLKLVEKLDVKKDWSDHALWWEKKRTWLLKTHWTLDKCGIQADAKLQFTPQHKLLRLQLPNMKYVKVKVNFSDRVFKAVSDICKTFNIRHPEELSLLKKPRDPTKKKKKKLDDQSEDEALELEGPLIMPGSGSIYSSPGLYSKTMTPTYDAHDGSPLSPTSAWFGDSALSEGNPGILAVSQPVTSPEILAKMFKPQALLDKAKTNQGWLDSSRSLMEQDVKENEALLLRFKYYSFFDLNPKYDAIRINQLYEQAKWALLLEEIECTEEEMMMFAALQYHINKLSIMTSENHLNNSDKEVDEVDAALSDLEITLEGGKTSTILGDITSIPELADYIKVFKPKKLTLKGYKQYWCTFKDTSISCYKSREESSGTPAHQLNLRGCEVTPDVNISGQKFNIKLLIPVAEGMNEIWLRCDNEKQYAHWMAACRLASKGKTMADSSYNLEVQNILSFLKMQHLNPDPQLIPDQITTDVNPECLVSPRYLKKYKSKQITARILEAHQNVAQMSLIEAKMRFIQAWQSLPEFGITHFIARFQGGKREELIGIAYNRLIRMDASTGDAIKTWRFSNMKQWNVNWEIKMVTVEFADEVRLSFICTEVDCKVVHEFIGGYIFLSTRAKDQNESLDEEMFYKLTSGWV
